Reference: PMC5594043, “CYP79 P450 monooxygenases in gymnosperms: CYP79A118 is associated with the formation of taxiphyllin in Taxus baccata” (Plant Molecular Biology, 2017)

Sequences of proteins named here, by UniProt entry; tags and fusion partners are left off.
UniProt A0A288W866, entry or part of it: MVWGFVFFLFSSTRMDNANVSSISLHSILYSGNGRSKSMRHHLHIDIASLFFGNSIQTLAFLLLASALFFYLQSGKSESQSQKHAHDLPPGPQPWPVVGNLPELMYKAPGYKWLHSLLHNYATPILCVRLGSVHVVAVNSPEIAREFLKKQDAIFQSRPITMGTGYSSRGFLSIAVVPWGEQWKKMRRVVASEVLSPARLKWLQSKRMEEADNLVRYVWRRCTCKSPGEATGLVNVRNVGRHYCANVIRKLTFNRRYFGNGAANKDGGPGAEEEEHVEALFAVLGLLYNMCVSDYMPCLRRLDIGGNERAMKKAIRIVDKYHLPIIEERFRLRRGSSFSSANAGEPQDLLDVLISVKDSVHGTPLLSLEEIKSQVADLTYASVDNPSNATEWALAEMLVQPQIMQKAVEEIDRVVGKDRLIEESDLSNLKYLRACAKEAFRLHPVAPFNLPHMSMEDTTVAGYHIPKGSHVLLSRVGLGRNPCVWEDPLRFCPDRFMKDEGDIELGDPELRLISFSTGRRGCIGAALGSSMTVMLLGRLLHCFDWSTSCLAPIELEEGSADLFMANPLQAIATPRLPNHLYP

Molecular target: T1, CYP79A118 full-length (CYP79A118-M1) (Taxus baccata, UniProt A0A288W866)
T1 construct: full-length ORF; yeast WAT11 microsomes with Arabidopsis CPR1; pESC-Leu2d
Type: biochemical
Conditions: 1 mM substrate; NADPH 1 mM; Arabidopsis CPR1 in microsomes; 75 mM sodium phosphate pH 7.0; 25 °C; product p-hydroxyphenylacetaldoxime

N[C@@H](Cc1ccc(O)cc1)C(=O)O [Tyr, L-tyrosine]
LC-MS/MS of aldoxime product, yeast microsomes: the full-length protein as well as the truncated version showed enzymatic activity with the aromatic
